Values quoted from earlier work as cited in patent US5635486A, “Ophthalmic composition comprising a sleep adjusting substance” (priority 1990, dated 1997).
At least one compound was matched to its structure with a doubt left.

Conditions: species and route not stated; cited from earlier work

Structure (SMILES): CCCCCCC(C)OC(=O)CC(=O)CBr (stereo not shown) [2-Octyl-gamma-bromoacetoacetate, 2-octyl-gamma-bromoacetoacetate]
- sleep effect: REM sleep inducing substance
